# From article PMC6532931, “Structures suggest a mechanism for energy coupling by a family of organic anion transporters” (PLoS Biology, 2019)
# Results are given in words; binding and its absence hold for the method and conditions named.
# B1: Escherichia coli D-galactonate/H+ symporter D-galactonate transporter (DgoT), wild type (protein, UniProt P0AA76 1-430)
# chain: MDIPVNAAKPGRRRYLTLVMIFITVVICYVDRANLAVASAHIQEEFGITKAEMGYVFSAFAWLYTLCQIPGGWFLDRVGSRVTYFIAIFGWSVATLFQGFATGLMSLIGLRAITGIFEAPAFPTNNRMVTSWFPEHERASAVGFYTSGQFVGLAFLTPLLIWIQEMLSWHWVFIVTGGIGIIWSLIWFKVYQPPRLTKGISKAELDYIRDGGGLVDGDAPVKKEARQPLTAKDWKLVFHRKLIGVYLGQFAVASTLWFFLTWFPNYLTQEKGITALKAGFMTTVPFLAAFVGVLLSGWVADLLVRKGFSLGFARKTPIICGLLISTCIMGANYTNDPMMIMCLMALAFFGNGFASITWSLVSSLAPMRLIGLTGGVFNFAGGLGGITVPLVVGYLAQGYGFAPALVYISAVALIGALSYILLVGDVKRVG
# Molecular target: Escherichia coli D-galactonate/H+ symporter D-galactonate transporter (DgoT), wild type (E. coli) (UniProt P0AA76)
# Experiment: SEC; TSK 3000 column, purified detergent-solubilised DgoT; SEC buffer in the methods: 10 mM HEPES pH 7, 150 mM NaCl, 10% glycerol, 0.5 mM TCEP, 0.2% beta-NG; both purified
binder,measurement,value
B1,binding,no binding
